Measurements reported in PubChem BioAssay AID1259254 (NCATS, 2017)
The whole screen tested about 59,000 reagents; this is a random part of them. Over the whole deposit, about 1,550 (2.6%) were called active. 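G2 share is only a proxy for re-replication; each gene was hit by three separate siRNAs, and active genes were retested.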 A number with no mark means an inactive call. Reagents against one gene are numbered here. Not all columns of the deposit are shown. Not given: the amount of reagent.

Aim: 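Genome-wide screen for genes that prevent DNA re-replication in cancer cells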 (primary screen)
Cell system: human HCT116 colorectal cancer cells
Knock-down reagent: single siRNA against human genes
Timing: 3 days
Detection: 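Imaged Hoechst DNA stain sorts each cell into a cycle phase by DNA amount; per plate, G2 fraction set to 0% for non-targeting and 100% for GMNN siRNA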
Direction: G2 robust z-score: higher = more G2 cells, more excess DNA replication
Hit rule: 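An siRNA counts as active if its G2 robust z-score lies at least 5 MADs above the screen median; here such calls match roughly 38% of GMNN control or more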

G2 robust z-score, by target gene and reagent
BEST1 (GeneID 7439): #1 -0.319; #2 -0.871; #3 0.893
THAP12P1 (GeneID 728748): #1 5.3 (active); #2 1.26; #3 2.77
PSMB4 (GeneID 5692): #1 0.672; #2 2.31; #3 -0.163
ARPP19P1 (GeneID 646227): #1 0.729; #2 -0.259; #3 -0.086
ATOX1 (GeneID 475): #1 0.829; #2 1.53; #3 -0.803
HNRNPD (GeneID 3184): #1 -0.635; #2 4.75; #3 3.03
TJP3 (GeneID 27134): #1 -0.262; #2 -0.965; #3 5.77 (active)
OR4L1 (GeneID 122742): #1 -0.23; #2 3.28; #3 0.326
EGLN1 (GeneID 54583): #1 -1.41; #2 0.797; #3 -0.646
SLC5A2 (GeneID 6524): #1 0.765; #2 1.45; #3 0.141
TCN1 (GeneID 6947): #1 2.98; #2 -0.231; #3 0.819
CHST3 (GeneID 9469): #1 -1.29; #2 -0.658; #3 -0.0452
EED (GeneID 8726): #1 -0.182; #2 1.38; #3 -0.43
FOXI3 (GeneID 344167): #1 2.29; #2 -0.707; #3 -0.738; #4 0.414; #5 0.851; #6 0.268
GPALPP1 (GeneID 55425): #1 -0.322; #2 0.389; #3 1.86
WFDC12 (GeneID 128488): #1 -0.443; #2 0.383; #3 -0.258
LOC440982 (GeneID 440982): #1 1.34; #2 1.3; #3 -0.307
SEMA6B (GeneID 10501): #1 4.18; #2 -1.33; #3 0.476
RAD51AP2 (GeneID 729475): #1 -0.342; #2 5.34 (active); #3 0.218
ZFP91 (GeneID 80829): #1 -0.0388; #2 4.46; #3 -0.878
PRR14 (GeneID 78994): #1 -1.05; #2 1.43; #3 1.38
NRAP (GeneID 4892): #1 -0.179; #2 1.08; #3 -0.878
RAB38 (GeneID 23682): #1 0.0391; #2 8.53 (active); #3 -0.205
ZBED3 (GeneID 84327): #1 -0.532; #2 -1.08; #3 1.4
RAP1GDS1 (GeneID 5910): #1 0.348; #2 1.65; #3 -0.144
ZNFX1 (GeneID 57169): #1 -0.597; #2 -1.1; #3 -0.732
PPM1D (GeneID 8493): #1 0.387; #2 -0.712; #3 -0.346
ZIC3 (GeneID 7547): #1 -0.484; #2 1.94; #3 -0.557

Single entries from the list.
For “G2 robust z-score”, SLC5A2 (GeneID 6524) #1 is entered as 0.765
RAB38 (GeneID 23682) #1, G2 robust z-score = 0.0391
Result for TCN1 (GeneID 6947) #1 under “G2 robust z-score”: 2.98
EED (GeneID 8726) #2, G2 robust z-score: 1.38
ZFP91 (GeneID 80829) #2, G2 robust z-score → 4.46
For “G2 robust z-score”, ZFP91 (GeneID 80829) #3 shows -0.878
